Measurements published in patent US20170014455A1, “INDUCING BROWN FAT FATE AND FUNCTION” (The J. David Gladstone Instiutes, a testamentary trust …, priority 2014, published 2017).
For at least one compound, name, drawing or mass did not settle the structure.

Assays:
C2C12 myoblast cell line = assay: Adipogenesis of C2C12 myoblasts, Oil-red-O staining of lipid droplets (high-throughput phenotypic screen and follow-up); format: cell-based, mouse
Experimental: C2C12, 3T3-L1 and C3H10T1/2 cells were purchased from ATCC. Primary brown pre-adipocytes were kindly donated by Prof. C. Ronald Kahn (Harvard University). Primary myoblasts were purified from mouse limb muscles and cultured in growth medium (F10+20% FBS+5 ng/ml bFGF) in Matrigel-coated plates (Xiao et al., Cell Res 21, 350-364 (2011)). Adipocyte differentiation was induced by treating cells for 2 days in basal adipogenesis medium (AM) (850 nM insulin, 1 nM T3, 0.5 mM isobuylmethylxanthine, […] indomethacin, 5 μM dexamethasone in10% FBS DMEM). Then cells were switched to 10% FBS DMEM containing 850 nM insulin and 1 nM T3 for another 4-6 days. To stimulate thermogenesis, cells were stimulated with 10 μM forskolin for 4 h.
To identify small molecules that mimic the BAT-inducing activity of Prdm16, a high-throughput phenotypic screen of 20,000 compounds was performed using the C2C12 myoblast cell line with lipid droplets stained by Oil-red-O (ORO) as readout (FIG. 1A). […] In the basal adipogenesis medium (AM), no adipocyte-like cells could be induced from C2C12 myoblasts.

[1] = system: primary mouse embryonic fibroblast (MEF) cells; assay: Adipogenesis and gene expression in primary mouse embryonic fibroblasts; format: cell-based

For `CN(CCOc1ccc(CC2SC(=O)NC2=O)cc1)c1ccccn1` (stereo not drawn) [rosiglitazone], the “effect of bexarotene on adipogenesis when combined” value (C2C12 myoblast cell line; combined with bexarotene) was “further enhanced”, the “adipocyte formation from myoblasts” value (C2C12 myoblast cell line; compound alone) was “could not induce adipocyte formation” and the “brown phenotype / browning” value [1] was “did not induce browning”.
